No constants are given. Whether binding was seen depends on the method and setting. For part of these data: In cells and extracts the contact can be indirect. Some binding calls cover weakened binding; strength is not graded here. Where a sequence is shown, tags or fusion partners need not be part of it.

The target of test [1] is T1, VPS39-FLAG (human, UniProt Q96JC1 1-886).
T1 construct: VPS39, human, HOPS-specific subunit; DNA region encoding the full-length protein fused with a FLAG tag; also called HOPS-specific VPS39; not shown: FLAG, N-terminal, kept
T1 sequence (looked up): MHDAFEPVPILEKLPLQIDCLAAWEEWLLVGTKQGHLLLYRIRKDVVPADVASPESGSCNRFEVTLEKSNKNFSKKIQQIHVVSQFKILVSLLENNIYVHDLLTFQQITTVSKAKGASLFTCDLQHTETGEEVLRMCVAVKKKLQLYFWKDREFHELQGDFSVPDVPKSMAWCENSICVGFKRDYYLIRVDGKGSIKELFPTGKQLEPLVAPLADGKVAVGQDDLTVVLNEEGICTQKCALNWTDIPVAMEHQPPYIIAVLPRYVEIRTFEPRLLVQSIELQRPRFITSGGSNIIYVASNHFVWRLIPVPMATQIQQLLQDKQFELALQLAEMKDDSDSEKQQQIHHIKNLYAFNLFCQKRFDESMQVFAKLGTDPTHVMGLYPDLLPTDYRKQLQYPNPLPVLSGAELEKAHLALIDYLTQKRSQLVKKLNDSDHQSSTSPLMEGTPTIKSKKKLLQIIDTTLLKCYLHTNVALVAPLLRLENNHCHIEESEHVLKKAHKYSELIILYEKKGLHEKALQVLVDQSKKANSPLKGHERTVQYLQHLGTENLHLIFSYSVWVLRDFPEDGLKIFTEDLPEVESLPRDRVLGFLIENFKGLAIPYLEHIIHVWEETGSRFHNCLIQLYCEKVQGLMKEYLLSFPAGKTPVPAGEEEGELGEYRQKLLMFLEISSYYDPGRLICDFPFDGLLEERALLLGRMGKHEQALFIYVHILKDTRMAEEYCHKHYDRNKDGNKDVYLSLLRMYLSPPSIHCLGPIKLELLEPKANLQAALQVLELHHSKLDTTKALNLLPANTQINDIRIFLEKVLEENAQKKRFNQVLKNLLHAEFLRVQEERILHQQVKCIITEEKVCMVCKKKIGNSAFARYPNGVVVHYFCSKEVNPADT
As to the kind of experiment: co-IP; anti-FLAG beads on lysates of HEK293 cells overexpressing a FLAG-tagged subunit together with untagged VPS8 or VPS41-HA; eluates analysed by western blot; lysis buffer 50 mM TRIS-HCl pH 7.5, 150 mM NaCl, 1% Triton X-100, 5 mM EDTA; 1.5 h at 4 °C. (In western blotting, separated proteins are transferred to a membrane and probed.)

Test [2] has as its target T2, VPS41 (yeast two-hybrid fusion) (human) (UniProt P49754).
T2 sequence: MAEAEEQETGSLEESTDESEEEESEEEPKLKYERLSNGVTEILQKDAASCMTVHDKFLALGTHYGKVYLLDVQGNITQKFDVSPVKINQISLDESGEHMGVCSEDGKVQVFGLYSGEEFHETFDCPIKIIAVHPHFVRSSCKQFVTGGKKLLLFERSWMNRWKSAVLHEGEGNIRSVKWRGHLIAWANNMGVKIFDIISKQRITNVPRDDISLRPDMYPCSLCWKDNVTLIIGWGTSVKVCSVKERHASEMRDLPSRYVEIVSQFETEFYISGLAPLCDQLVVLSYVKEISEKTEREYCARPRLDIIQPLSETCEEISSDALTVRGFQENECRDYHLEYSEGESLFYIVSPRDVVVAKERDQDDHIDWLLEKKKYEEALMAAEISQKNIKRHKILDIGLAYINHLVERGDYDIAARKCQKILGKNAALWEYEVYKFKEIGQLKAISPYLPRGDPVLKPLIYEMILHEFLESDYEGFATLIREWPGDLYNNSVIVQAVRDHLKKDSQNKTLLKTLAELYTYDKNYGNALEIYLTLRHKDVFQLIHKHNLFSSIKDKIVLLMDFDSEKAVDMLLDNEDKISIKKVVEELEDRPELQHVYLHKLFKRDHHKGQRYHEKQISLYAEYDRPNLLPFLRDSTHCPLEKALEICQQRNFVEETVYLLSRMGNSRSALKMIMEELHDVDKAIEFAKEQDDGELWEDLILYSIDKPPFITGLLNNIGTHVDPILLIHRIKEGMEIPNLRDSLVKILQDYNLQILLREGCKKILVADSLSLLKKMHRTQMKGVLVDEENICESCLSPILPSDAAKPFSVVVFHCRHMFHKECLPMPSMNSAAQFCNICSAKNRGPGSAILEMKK
As to the kind of experiment: two-hybrid; yeast AH109 co-transformed with pGADT7 and pGBKT7 constructs; selection on SD-WL, interaction read by growth on SD-WL without adenine or histidine; 48 h at 30 °C.

Test [3] addresses T3, VPS8 (yeast two-hybrid fusion) (human) (UniProt Q8N3P4).
T3 sequence: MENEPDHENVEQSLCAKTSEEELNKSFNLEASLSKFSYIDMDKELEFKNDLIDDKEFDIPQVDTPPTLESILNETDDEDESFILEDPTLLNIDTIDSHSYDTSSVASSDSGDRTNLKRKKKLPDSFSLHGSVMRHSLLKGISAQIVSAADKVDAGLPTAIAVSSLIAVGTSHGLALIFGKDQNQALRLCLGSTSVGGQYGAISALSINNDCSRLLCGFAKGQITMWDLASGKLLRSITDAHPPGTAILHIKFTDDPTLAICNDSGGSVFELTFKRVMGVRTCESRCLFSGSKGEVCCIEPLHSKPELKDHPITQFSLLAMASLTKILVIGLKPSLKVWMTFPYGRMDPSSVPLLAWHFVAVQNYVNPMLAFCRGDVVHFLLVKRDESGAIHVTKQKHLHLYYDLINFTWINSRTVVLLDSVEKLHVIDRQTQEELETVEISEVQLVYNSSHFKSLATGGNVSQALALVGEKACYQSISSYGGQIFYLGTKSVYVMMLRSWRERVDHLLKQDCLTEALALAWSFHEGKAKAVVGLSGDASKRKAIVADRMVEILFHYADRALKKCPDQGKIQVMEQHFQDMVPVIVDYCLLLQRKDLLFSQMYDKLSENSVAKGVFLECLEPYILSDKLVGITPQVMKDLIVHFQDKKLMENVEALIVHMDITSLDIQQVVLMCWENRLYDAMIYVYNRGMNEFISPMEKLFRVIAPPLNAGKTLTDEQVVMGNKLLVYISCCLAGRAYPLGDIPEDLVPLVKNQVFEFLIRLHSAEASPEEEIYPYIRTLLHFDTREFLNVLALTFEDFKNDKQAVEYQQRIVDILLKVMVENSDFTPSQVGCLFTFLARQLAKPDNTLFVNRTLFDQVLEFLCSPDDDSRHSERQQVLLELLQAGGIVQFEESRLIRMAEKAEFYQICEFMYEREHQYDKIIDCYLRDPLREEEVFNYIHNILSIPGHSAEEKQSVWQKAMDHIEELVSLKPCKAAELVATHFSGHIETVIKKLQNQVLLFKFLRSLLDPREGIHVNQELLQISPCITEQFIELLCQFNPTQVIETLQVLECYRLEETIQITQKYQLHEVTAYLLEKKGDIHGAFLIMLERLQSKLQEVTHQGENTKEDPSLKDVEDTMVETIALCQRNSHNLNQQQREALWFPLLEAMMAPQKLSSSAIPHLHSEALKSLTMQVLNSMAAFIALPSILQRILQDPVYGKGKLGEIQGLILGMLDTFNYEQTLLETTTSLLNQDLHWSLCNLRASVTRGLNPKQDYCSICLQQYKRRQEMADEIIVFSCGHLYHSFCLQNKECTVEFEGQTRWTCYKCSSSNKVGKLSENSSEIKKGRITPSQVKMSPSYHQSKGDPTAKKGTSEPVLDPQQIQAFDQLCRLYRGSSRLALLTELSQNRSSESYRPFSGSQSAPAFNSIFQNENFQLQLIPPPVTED
Described as above.

B1: VPS41-HA (protein, UniProt P49754 1-854)
chain: T2 sequence
Consider B1, for which the binding result in test [1] is reported as “binds”.

B2: VPS18FL (yeast two-hybrid fusion) (protein, UniProt Q9P253 1-973)
chain: MASILDEYENSLSRSAVLQPGCPSVGIPHSGYVNAQLEKEVPIFTKQRIDFTPSERITSLVVSSNQLCMSLGKDTLLRIDLGKANEPNHVELGRKDDAKVHKMFLDHTGSHLLIALSSTEVLYVNRNGQKVRPLARWKGQLVESVGWNKALGTESSTGPILVGTAQGHIFEAELSASEGGLFGPAPDLYFRPLYVLNEEGGPAPVCSLEAERGPDGRSFVIATTRQRLFQFIGRAAEGAEAQGFSGLFAAYTDHPPPFREFPSNLGYSELAFYTPKLRSAPRAFAWMMGDGVLYGALDCGRPDSLLSEERVWEYPEGVGPGASPPLAIVLTQFHFLLLLADRVEAVCTLTGQVVLRDHFLEKFGPLKHMVKDSSTGQLWAYTERAVFRYHVQREARDVWRTYLDMNRFDLAKEYCRERPDCLDTVLAREADFCFRQRRYLESARCYALTQSYFEEIALKFLEARQEEALAEFLQRKLASLKPAERTQATLLTTWLTELYLSRLGALQGDPEALTLYRETKECFRTFLSSPRHKEWLFASRASIHELLASHGDTEHMVYFAVIMQDYERVVAYHCQHEAYEEALAVLARHRDPQLFYKFSPILIRHIPRQLVDAWIEMGSRLDARQLIPALVNYSQGGEVQQVSQAIRYMEFCVNVLGETEQAIHNYLLSLYARGRPDSLLAYLEQAGASPHRVHYDLKYALRLCAEHGHHRACVHVYKVLELYEEAVDLALQVDVDLAKQCADLPEEDEELRKKLWLKIARHVVQEEEDVQTAMACLASCPLLKIEDVLPFFPDFVTIDHFKEAICSSLKAYNHHIQELQREMEEATASAQRIRRDLQELRGRYGTVEPQDKCATCDFPLLNRPFYLFLCGHMFHADCLLQAVRPGLPAYKQARLEELQRKLGAAPPPAKGSARAKEAEGGAATAGPSREQLKADLDELVAAECVYCGELMIRSIDRPFIDPQRYEEEQLSWL
With B2, the binding result in test [2] and in test [3] was “binds” each time.

The values are drawn from publication PMC11066007, “CORVET-specific subunit levels determine the balance between HOPS/CORVET endosomal tethering complexes” (Scientific Reports, 2024).
